Screening data, single-dose tests

Each number is a percent effect as filed. The record does not define 0% and 100%; most values in the screen are far below 50% and negative numbers occur (in some assays of this library far below -100). Compounds were drawn at random from those tested, without regard to their results.

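Growth of Mycobacterium tuberculosis over 3 days (7H9 medium with glucose and tyloxapol); the read-out is not stated. Tested at 500 µM. The record gives no direction; compounds that gave an IC50 in retests scored well above the rest, so higher reads as more growth inhibition. Of about 18,000 compounds tested this way, about 1,400 (7.9%) reached 50% or more in at least one test.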

- O=C(Nc1ncccn1)OCC(F)(F)F : 1.554%
- CCn1ccnc(NC2CC2)c1=O : 4.682%
- Cc1ccccc1-n1c(C)nnc1SCCC(N)=O : 14.01%
- O=C(NC1CC1)c1ccc2c(c1)CCO2 : 29.07%
- CCOc1ccc2cc(C(=O)N3CCSCC3)[nH]c2c1 : 3.581%
- O=C1CC2(CCCNC2)CN1 (configuration not stated) : 6.728%
- CN(C)C(=O)c1ccc(-n2cccc2)c(F)c1 : 40.59%
- CC1(C(=O)Nc2cccc(Cl)c2)CCCCC(=O)N1 (configuration not stated) : 10.31%
- CCCc1ccc(CN2CCCN(C(C)=O)CC2)o1 : 23.44%
- Cc1c[nH]c(C(=O)N2CCN3CCN(C)CC3C2)n1 (configuration not stated) : -4.694%
- O=C1CN(C(=O)CN2CCCC2)c2ccccc2N1 : 23.72%
- CC(OC(=O)c1cncc(Br)c1)C(=O)NC1CC1 (configuration not stated) : 5.011%
- Cc1cc(F)cc(C(=O)N(C)C(C)CN)c1 (configuration not stated) : 4.36%
- CCc1nc(C)ccc1OCCCS(C)(=O)=O : -5.715%
- Cc1noc(C)c1S(=O)(=O)N1CCC(C(N)=O)C1 (configuration not stated) : -4.648%
- CC1CCCN(C(=O)c2csc(S(N)(=O)=O)c2)C1 (configuration not stated) : -2.069%
- CSc1nnc(N2CCOCC2)n1CC(C)C : 4.964%
- COCCCN1CCC(Nc2ccc(Cl)cn2)CC1 : 28.16%
- COc1ccc2c(c1)NC(=O)C2O (configuration not stated) : 9.805%
- NC(c1ccccc1)c1c[nH]cn1 (configuration not stated) : 22.86%
- NCCCc1cn[nH]c1 : 15.21%
- CNC(CCO)Cc1ccccc1 (configuration not stated) : 12.41%
- Cn1cc(CCCO)cn1 : -28.15%
- Cc1cccnc1NCCNC(=O)C1=NNC(=O)CC1 : 8.684%
- NCC(O)c1cccc(F)c1 (configuration not stated) : 20.81%
- CC(c1cccnc1)N(C)C(=O)c1ccccc1C#N (configuration not stated) : 14.51%
- Cc1nnc2ccc(C(=O)NCCN3CCCC3)cn12 : -33.09%
- COCCCN1CCN(C(C)c2nc(C)no2)CC1 (configuration not stated) : -13.51%
- COCc1nc(-c2cnn(C)c2)cs1 : 25.68%
- COCCOc1ccc(NC(=O)OCC(F)(F)F)cn1 : 60.73%
- O=S1(=O)CCC(NC2CC2)C1 (configuration not stated) : 5.028%
- CC1c2ccsc2CCN1CCC(=O)N(C)C (configuration not stated) : 43.36%
- CC(C)N1CC(C(=O)NCc2c[nH]nn2)CC1=O (configuration not stated) : -5.682%
- CCc1ccc(C(N)COC)o1 (configuration not stated) : 14.52%
- Cc1ccc2c(c1)nc(CN)n2C : 66.94%
- NC1CCCN(CCS(=O)(=O)c2ccc(Br)cc2)C1 (configuration not stated) : 20.09%
- Cc1cc(NC(C)c2ccco2)nc(N)n1 (configuration not stated) : 53.05%
- CC(NC(=O)OC(C)(C)C)C1CCNCC1 (configuration not stated) : -2.663%
- CN(CCS(C)(=O)=O)c1nc2ccccc2[nH]1 : -1.315%
- OC1(Cc2ccncc2)CCNCC1 : 6.059%
- CN1CCC(NC(=O)c2ccc(=O)n(C)c2)C1 (configuration not stated) : -8.121%
- CN(C)[C@@H]1CN(C(=O)c2c(F)cccc2Cl)C[C@H]1CO : -17.37%
- CC(=O)N(Cc1noc(C)n1)C1CCNC1 (configuration not stated) : -6.365%

Repeated from the top, 4 entries:

Compound,percent effect
O=C(Nc1ncccn1)OCC(F)(F)F,1.554
CCn1ccnc(NC2CC2)c1=O,4.682
Cc1ccccc1-n1c(C)nnc1SCCC(N)=O,14.01
O=C(NC1CC1)c1ccc2c(c1)CCO2,29.07

Data taken from ChEMBL document CHEMBL3988442, “University of Dundee, Small-Polar-MMV Screening Library” (2021).